The other results are listed elsewhere or left out.
Columns and labels:
Assay in all cases: log2 fold change, soluble protein after heating vs DMSO (PISA); higher = thermal stabilisation; K562 lysate, 10 uM; active = over 0.2 and 3.5 SD of the protein, either way, in both replicates (recomputed)
[1] = compound: C=CC(=O)N1CCC[C@@H](n2nc(-c3ccc(Oc4ccccc4)cc3)c3c(N)ncnc32)C1 [ibrutinib]
Method in brief: (§1)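 Soluble protein was defined as the supernatant remaining after 21,000xg for 90 min, following pooling of heated aliquots and adjustment to 0.5% NP-40 at 4°C. Before that, crude K562 extract at 1 mg/mL protein in PBS pH 7.4 with 1 mM MgCl2 was treated with 10 μM compound for 30 min and heated for 3 min across 48°C-58°C. Quantification used TMTpro 16plex LC-MS/MS with channel sums equalised, and values are log-two fold changes in thermal stability relative to solvent controls from duplicates.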

Sequences of proteins named here, by UniProt entry; tags and fusion partners are left off. A change or cut given only in a name is not applied to a line headed by its entry.
UniProt P41134: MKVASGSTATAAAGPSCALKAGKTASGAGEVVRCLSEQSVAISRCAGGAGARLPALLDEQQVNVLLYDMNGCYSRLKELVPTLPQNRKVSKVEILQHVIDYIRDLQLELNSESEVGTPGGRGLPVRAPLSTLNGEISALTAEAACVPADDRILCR
UniProt Q9NQC8: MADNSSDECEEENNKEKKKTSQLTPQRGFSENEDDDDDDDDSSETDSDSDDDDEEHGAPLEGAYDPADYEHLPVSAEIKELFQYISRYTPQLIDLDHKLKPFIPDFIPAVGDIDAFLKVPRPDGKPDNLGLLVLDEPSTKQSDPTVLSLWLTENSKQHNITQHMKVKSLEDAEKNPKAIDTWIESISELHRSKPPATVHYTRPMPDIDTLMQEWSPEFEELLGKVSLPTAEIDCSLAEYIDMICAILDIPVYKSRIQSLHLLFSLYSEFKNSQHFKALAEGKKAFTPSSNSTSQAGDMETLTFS
UniProt Q96D96: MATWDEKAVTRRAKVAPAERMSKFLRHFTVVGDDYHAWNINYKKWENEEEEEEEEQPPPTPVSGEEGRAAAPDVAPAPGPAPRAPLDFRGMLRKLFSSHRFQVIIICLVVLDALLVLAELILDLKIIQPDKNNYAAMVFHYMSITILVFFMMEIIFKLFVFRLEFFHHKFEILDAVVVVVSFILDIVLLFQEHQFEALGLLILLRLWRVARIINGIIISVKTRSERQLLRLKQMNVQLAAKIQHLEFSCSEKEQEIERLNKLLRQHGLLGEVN
UniProt Q8WYA0: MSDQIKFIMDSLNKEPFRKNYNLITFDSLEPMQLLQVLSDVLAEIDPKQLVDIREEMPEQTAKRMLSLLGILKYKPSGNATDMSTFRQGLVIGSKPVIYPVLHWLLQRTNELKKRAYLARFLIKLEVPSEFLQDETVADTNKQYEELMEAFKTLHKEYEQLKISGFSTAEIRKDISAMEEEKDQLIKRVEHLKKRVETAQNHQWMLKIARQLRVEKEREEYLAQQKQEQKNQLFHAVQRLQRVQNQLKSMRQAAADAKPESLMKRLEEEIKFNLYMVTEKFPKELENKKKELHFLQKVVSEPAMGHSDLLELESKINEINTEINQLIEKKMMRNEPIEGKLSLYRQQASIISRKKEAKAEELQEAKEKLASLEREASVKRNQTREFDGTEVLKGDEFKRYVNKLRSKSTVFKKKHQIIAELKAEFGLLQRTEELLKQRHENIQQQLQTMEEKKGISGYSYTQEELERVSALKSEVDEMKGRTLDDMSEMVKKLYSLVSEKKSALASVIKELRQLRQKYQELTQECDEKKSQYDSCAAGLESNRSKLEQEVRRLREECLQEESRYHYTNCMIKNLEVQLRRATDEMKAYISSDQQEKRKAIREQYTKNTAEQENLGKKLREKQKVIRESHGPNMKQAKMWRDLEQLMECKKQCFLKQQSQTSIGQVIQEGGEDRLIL
UniProt P50213: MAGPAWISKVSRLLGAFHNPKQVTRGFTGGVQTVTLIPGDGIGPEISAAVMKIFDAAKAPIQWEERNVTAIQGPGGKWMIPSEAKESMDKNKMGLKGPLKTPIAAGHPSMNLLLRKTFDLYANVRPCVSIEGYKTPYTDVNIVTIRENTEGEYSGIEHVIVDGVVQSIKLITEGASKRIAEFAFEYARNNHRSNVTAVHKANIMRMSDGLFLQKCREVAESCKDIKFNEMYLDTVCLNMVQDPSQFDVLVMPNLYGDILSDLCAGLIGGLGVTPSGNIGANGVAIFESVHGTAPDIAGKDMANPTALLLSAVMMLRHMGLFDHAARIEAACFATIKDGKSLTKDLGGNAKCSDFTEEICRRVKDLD
UniProt Q9UK53: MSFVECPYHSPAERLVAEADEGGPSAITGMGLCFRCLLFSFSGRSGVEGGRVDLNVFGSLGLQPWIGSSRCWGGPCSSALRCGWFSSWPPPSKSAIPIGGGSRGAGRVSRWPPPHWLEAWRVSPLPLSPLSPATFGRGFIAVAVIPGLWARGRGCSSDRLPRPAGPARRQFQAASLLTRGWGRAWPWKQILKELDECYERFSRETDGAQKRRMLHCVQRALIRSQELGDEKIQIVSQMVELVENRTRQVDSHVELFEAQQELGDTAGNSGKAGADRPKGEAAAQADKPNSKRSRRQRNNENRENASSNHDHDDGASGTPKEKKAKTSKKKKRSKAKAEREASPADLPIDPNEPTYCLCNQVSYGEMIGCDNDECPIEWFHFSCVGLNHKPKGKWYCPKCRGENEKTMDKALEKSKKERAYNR
UniProt Q9NWB7: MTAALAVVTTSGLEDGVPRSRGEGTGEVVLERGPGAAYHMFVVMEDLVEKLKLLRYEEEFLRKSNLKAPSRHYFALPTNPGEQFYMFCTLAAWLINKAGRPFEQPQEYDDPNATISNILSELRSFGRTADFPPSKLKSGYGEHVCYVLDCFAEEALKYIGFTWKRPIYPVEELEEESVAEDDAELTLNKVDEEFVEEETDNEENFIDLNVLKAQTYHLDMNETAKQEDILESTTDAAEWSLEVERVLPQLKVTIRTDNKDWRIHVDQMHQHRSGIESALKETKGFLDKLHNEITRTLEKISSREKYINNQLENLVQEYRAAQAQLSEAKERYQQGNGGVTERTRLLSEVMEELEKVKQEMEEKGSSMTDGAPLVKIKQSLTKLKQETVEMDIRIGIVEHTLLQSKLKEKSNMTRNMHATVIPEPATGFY
UniProt P22304: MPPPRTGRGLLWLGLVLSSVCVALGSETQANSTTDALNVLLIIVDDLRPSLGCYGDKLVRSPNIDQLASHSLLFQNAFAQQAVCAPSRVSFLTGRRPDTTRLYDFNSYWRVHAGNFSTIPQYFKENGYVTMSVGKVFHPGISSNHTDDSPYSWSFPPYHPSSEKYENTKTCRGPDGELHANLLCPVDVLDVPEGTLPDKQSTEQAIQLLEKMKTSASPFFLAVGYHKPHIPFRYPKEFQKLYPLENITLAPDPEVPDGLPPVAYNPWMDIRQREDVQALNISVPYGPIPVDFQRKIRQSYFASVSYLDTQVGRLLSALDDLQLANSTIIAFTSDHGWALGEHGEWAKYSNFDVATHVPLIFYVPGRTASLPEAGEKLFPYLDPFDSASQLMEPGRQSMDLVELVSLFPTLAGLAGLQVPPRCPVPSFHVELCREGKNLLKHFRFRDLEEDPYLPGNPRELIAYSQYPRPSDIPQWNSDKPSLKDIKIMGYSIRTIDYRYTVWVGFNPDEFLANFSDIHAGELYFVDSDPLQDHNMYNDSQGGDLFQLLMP
UniProt P01876, whole entry, looked up: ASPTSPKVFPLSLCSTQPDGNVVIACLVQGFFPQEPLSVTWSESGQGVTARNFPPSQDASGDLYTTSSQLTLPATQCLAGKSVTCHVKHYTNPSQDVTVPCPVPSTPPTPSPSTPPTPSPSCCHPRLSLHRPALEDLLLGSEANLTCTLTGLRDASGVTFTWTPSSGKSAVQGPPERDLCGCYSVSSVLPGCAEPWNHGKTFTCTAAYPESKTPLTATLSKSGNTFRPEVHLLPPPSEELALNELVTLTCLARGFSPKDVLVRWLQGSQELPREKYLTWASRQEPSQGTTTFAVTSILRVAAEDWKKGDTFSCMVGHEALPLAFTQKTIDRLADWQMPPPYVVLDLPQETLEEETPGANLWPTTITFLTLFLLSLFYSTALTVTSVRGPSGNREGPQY
UniProt P30939: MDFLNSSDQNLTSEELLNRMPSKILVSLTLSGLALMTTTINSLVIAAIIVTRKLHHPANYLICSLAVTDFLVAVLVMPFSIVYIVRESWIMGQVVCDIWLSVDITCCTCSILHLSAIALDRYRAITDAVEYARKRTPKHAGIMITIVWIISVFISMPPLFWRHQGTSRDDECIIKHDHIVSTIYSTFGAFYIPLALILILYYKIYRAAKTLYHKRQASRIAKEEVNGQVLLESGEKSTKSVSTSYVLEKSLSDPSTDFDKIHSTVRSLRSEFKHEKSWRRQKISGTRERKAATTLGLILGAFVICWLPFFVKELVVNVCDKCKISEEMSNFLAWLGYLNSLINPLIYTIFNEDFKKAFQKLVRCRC

[2] = compound: CC(=O)c1cnc2ccc(-c3cc(Cl)c(O)c(Cl)c3)nc2c1N[C@H]1CC[C@H](CN(C)C)CC1
Method in brief: as §1

[3] = compound: CC(C)(C)Cn1c(N)nc2ccc(-c3[nH]c(C(C)(C)C)nc3-c3ccc(F)cc3)nc21 [ralimetinib]
Method in brief: as §1

[4] = compound: CC(C)(O)CC(=O)NCCn1ccc2ncnc(Nc3ccc(Oc4cccc(C(F)(F)F)c4)c(Cl)c3)c21
Method in brief: as §1

[5] = compound: CC1=C(C=C(C=C1)NC(=O)C2=CC(=CC=C2)N(C)C)NC(=O)C3=CC=C(C=C3)O
Method in brief: as §1

[6] = compound: CC1=CC=C(C=C1)SC2=C3C=C(SC3=CN=C2)C(=O)N
Method in brief: as §1

[7] = compound: CCCS(=O)(=O)Nc1ccc(F)c(C(=O)c2c[nH]c3ncc(Cl)cc23)c1F
Method in brief: as §1

[8] = compound: CCN(CCCOc1ccc2c(Nc3cc(CC(=O)Nc4cccc(F)c4)[nH]n3)ncnc2c1)CCOP(=O)(O)O [barasertib]
Method in brief: as §1

[9] = compound: CC[C@@H]1C(=O)N(C)c2cnc(Nc3ccc(C(=O)N[C@H]4CC[C@H](N5CCN(CC6CC6)CC5)CC4)cc3OC)nc2N1C(C)C [volasertib]
Method in brief: as §1

[10] = compound: CCn1c(C(=O)N(C2CC2)C2CC2)cc2c3c(ncn3C)c(Nc3cc(C)n(C)n3)nc21
Method in brief: as §1

[11] = compound: CCn1cc(-c2ccnc3[nH]c(-c4cccc(CN(C)C)c4)cc23)c(-c2ccc(NC(=O)N(C)C)cc2)n1
Method in brief: as §1

[12] = compound: CN1CCC(CNc2ccc3ncc(-c4cccc(OC(F)(F)F)c4)n3n2)CC1
Method in brief: as §1

[13] = compound: CC(C)C1=C2N=C(C=C(N2N=C1)NCC3=CC=CC=C3)NCCCCCCN
Method in brief: as §1

[14] = compound: CC1=C(C(CC(=O)N1)C2=CC=C(C=C2)C(F)(F)F)C(=O)NC3=C(C=C4C(=C3)C=NN4)F
Method in brief: as §1

[15] = compound: CC1=C(C2=C(C=C1)C(=O)C3=CC=CC=C3N2CCCN)C
Method in brief: as §1

[16] = compound: CC1=C(C=C(C=C1)NC(=O)C2=CC(=CC=C2)C(C)(C)C#N)NC3=CC4=C(C=C3)N=CN(C4=O)C
Method in brief: as §1

[17] = compound: CCCS(=O)(=O)Nc1ccc(F)c(C(=O)c2c[nH]c3ncc(-c4ccc(Cl)cc4)cc23)c1F [vemurafenib]
Method in brief: as §1

[18] = compound: CN1CCN(CCOc2cc(OC3CCOCC3)c3c(Nc4c(Cl)ccc5c4OCO5)ncnc3c2)CC1 [saracatinib]
Method in brief: as §1

[19] = compound: CN1CCN(c2nc(C3=C(c4c[nH]c5ccccc45)C(=O)NC3=O)c3ccccc3n2)CC1 [sotrastaurin]
Method in brief: as §1

[20] = compound: CC[C@@H]1C(=O)N(C)c2cnc(Nc3ccc(C(=O)NC4CCN(C)CC4)cc3OC)nc2N1C1CCCC1
Method in brief: as §1

Measured: log2 fold change

HSPH1 (UniProt Q5TBM3)
inactive: [1] -0.311 | [2] -0.045 | [3] -0.128 | [4] -0.073 | [5] -0.007 | [6] -0.044 | [7] 0.039 | [8] -0.185 | [9] -0.086 | [10] 0.017 | [11] 0.057 | [12] 0.072

ID1 (UniProt P41134)
inactive: [1] 0.31 | [3] 0.08 | [4] -0.098 | [13] -0.125 | [14] -0.074 | [15] 0.027 | [16] 0 | [5] 0.033 | [17] 0.036 | [8] 0.063 | [10] 0.004 | [11] 0.032 | [12] 0.016 | [18] -0.068 | [19] -0.001

HTT (UniProt P42858)
inactive: [1] 0.11 | [3] 0.065 | [4] 0.008 | [13] -0.032 | [14] 0.047 | [15] -0.032 | [16] 0.035 | [5] 0.04 | [17] -0.083 | [8] 0.044 | [20] -0.063 | [10] 0.052 | [11] -0.039 | [12] 0.152 | [18] -0.033 | [19] 0.01

IFT46 isoform 2 (UniProt Q9NQC8)
inactive: [2] -0.168 | [14] 0.071 | [16] -0.033 | [6] -0.267 | [17] 0.201 | [7] 0.292 | [20] -0.094 | [9] -0.138 | [11] -0.077 | [12] -0.018 | [19] -0.138

HVCN1 (UniProt Q96D96)
inactive: [1] -0.057 | [2] 0.121 | [13] -0.116 | [6] -0.131 | [7] 0.094 | [8] 0.072 | [20] 0.014 | [9] -0.072 | [11] -0.135 | [12] 0.229

HYOU1 (UniProt J3QL06)
inactive: [2] 0.212 | [3] 0.053 | [4] 0.007 | [13] 0.326 | [14] 0.017 | [15] 0.217 | [16] 0.149 | [5] 0.068 | [6] -0.066 | [17] -0.214 | [7] -0.012 | [20] -0.121 | [9] 0.029 | [10] -0.166 | [18] 0.099 | [19] -0.063

IFT81 (UniProt Q8WYA0)
inactive: [1] 0.177 | [3] -0.25 | [4] 0.017 | [16] -0.062 | [5] -0.254 | [8] -0.055 | [10] 0.18 | [11] -0.031 | [12] -0.122 | [19] 0.082

IDH3A isoform 2 (UniProt P50213)
inactive: [1] 0.032 | [2] -0.035 | [15] -0.111 | [6] 0.026 | [17] -0.013 | [7] 0.058 | [8] 0.017 | [20] 0.024 | [9] 0.032 | [11] -0.272 | [12] 0.13 | [18] -0.013

IGLC3 (UniProt P0DOY3)
inactive: [1] -0.48 | [13] 1.69 | [14] 2.14 | [15] 0.113 | [8] -0.551 | [11] 0.788 | [12] -1.02 | [18] -0.232

ING1 (UniProt Q9UK53)
inactive: [1] 0.019 | [3] 0.118 | [4] 0.04 | [13] -0.086 | [15] 0 | [16] -0.004 | [5] -0.007 | [8] 0.077 | [10] 0.021 | [11] 0.04 | [12] 0.029 | [18] 0.022 | [19] -0.022

IFT57 (UniProt Q9NWB7)
inactive: [2] -0.208 | [3] 0.125 | [4] -0.243 | [13] 0 | [14] -0.12 | [15] -0.047 | [16] 0.082 | [5] -0.42 | [6] 0.147 | [7] 0.137 | [20] -0.224 | [9] 0.115 | [10] 0.05 | [18] -0.02 | [19] 0.012

IDS (UniProt P22304)
inactive: [1] -0.068 | [2] -0.005 | [13] -0.189 | [6] 0.098 | [7] -0.204 | [8] 0.142 | [20] 0.168 | [9] -0.067

IGHA1 (UniProt P01876)
inactive: [1] -0.146 | [3] 0.111 | [4] 0.551 | [13] 1.87 | [14] 2.29 | [15] 0.467 | [16] -0.103 | [5] -0.126 | [17] 0.788 | [8] -0.134 | [20] -0.328 | [10] -0.182 | [11] 0.941 | [12] -0.879 | [18] -0.249 | [19] -0.266

HTR1F (UniProt P30939)
inactive: [1] 0.046 | [17] -0.016 | [8] 0.024

IGHG1 (UniProt P01857)
inactive: [1] -0.186 | [3] -0.094 | [4] 0.595 | [13] 1.02 | [14] 1.89 | [15] 0.041 | [16] -0.035 | [5] 0.136 | [17] -0.274 | [8] 0.026 | [10] -0.018 | [11] 0.245 | [12] -0.168 | [18] -0.076 | [19] -0.121
